For one substance, binding results are on record in publication PMC12597828.

Results are given in words; binding and its absence hold for the method and conditions named. Binding can be weak; no strength is given. Where a sequence is shown, tags or fusion partners need not be part of it.

This assay deals with T1, TetR–FLAG–MAU2 (UniProt Q9Y6X3).
T1 sequence: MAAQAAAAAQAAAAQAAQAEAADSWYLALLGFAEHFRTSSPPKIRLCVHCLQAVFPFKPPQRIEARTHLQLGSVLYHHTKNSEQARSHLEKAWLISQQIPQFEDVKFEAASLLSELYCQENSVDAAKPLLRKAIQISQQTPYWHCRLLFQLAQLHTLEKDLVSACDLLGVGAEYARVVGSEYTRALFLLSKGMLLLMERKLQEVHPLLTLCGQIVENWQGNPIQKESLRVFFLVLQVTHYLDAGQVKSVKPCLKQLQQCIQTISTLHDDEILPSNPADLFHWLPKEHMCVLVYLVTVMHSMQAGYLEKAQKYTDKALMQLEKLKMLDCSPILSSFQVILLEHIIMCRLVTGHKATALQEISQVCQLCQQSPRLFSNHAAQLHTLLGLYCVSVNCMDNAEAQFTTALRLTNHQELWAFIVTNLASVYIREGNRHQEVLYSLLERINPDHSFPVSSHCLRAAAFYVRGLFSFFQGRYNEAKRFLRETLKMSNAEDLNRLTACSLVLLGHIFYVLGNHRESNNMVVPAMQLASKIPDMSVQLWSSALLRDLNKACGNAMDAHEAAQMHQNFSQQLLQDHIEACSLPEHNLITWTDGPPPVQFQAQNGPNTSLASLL
The experiment in a line: ChIP (qPCR and sequencing) of factors co-recruited to TetO arrays by a tethered TetR fusion; HAP1 cells with 27 genomic TetO platforms stably expressing TetR–FLAG–MAU2 or TetR–FLAG–mCherry; 1% formaldehyde cross-linking for 10 min; ChIP with an antibody to each factor (anti-V5 for V5–MAU2); TetO DNA read by qPCR or sequencing; enrichment relative to Cherry cells; recruitment was lost after 1 h doxycycline; NIPBL recruitment was also tested after 2 h RAD21 depletion. (In qPCR the cycle at which signal appears reflects the starting amount.)

Regarding SMC1 (human (endogenous in HAP1)), the binding result is recorded as “binds”.
